# Values from PubChem BioAssay AID1259405 (NCATS, 2018)
# Screen: 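Mouse-designed siRNAs used to find CHO productivity engineering targets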 (primary screen)
# Cell system: Chinese hamster CHO-K1 ovary cells with stable secreted eGFP expression
# Knock-down reagent: single siRNA against mouse genes, 0.8 pmol siRNA per well (2 µl of 400 nM stock)
# Duration: 3 days
# Detection: 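Percent of the per-plate non-targeting control median for intracellular GFP per well by laser scanning cytometry and for cell viability by ATP luminescence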
# Direction: GFP, % of control: higher = more GFP per well, higher productivity; viability (ATP), % of control: higher = more viable cells (more ATP)
# Hit rule: 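Called active when intracellular GFP, relative to negative control, is at or above 120%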
# Here is a random part of about 50,000 deposited reagents. Of all reagents, about 4,000 (8%) were called active. 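Mouse siRNA library applied to hamster cells; one well for each siRNA.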 A number with no mark means an inactive call. Reagents against one gene are numbered here.
target gene,reagent no.,"GFP, % of control","viability (ATP), % of control"
Serpinb9b,1,84.8,87.1
Serpinb9b,2,118,67
Serpinb9b,3,113,102
1700128F08Rik,1,56.1,49.1
1700128F08Rik,2,50.3,18.3
1700128F08Rik,3,81.4,62.1
Ggps1,1,99.2,92
Ggps1,2,45.3,83.5
Ggps1,3,19.4,29.1
Ntf3,1,95.4,67.6
Ntf3,2,103,65.1
Ntf3,3,60.2,65.7
Mul1,1,142 (active),108
Mul1,2,86.4,77.2
Mul1,3,128 (active),65.5
Nmnat1,1,31.3,51.2
Nmnat1,2,126 (active),125
Nmnat1,3,70.7,86.2
Polr2f,1,81.6,111
Polr2f,2,66.3,55.9
Polr2f,3,65.6,57.8
Rps8,1,44.3,25.8
Rps8,2,72.6,76.7
Rps8,3,31.5,48.7
Fer,1,69.1,62.1
Kcnk1,1,102,104
Kcnk1,2,68.9,74
Kcnk1,3,92.5,103
Cd276,1,67.6,78.9
Cd276,2,76.7,83.1
Cd276,3,88.8,98.1
Naip5,1,81.5,49.4
Naip5,2,72.6,88.9
Naip5,3,87.6,87.8

Records above with an active call:
target gene,reagent no.,"GFP, % of control","viability (ATP), % of control"
Mul1,1,142 (active),108
Mul1,3,128 (active),65.5
Nmnat1,2,126 (active),125
